Values from PubChem BioAssay AID1671195 (Yale University, 2021)
Assay: 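Knockdowns that increase or decrease uptake of fluorescent LDL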 (primary screen). System: human Huh7 hepatoma cells. Knock-down reagent: siRNA pool against human genes, 18 nM. Duration: about 2 to 2.5 days of knockdown, then 8 h LDL uptake. Conditions: DiI-labelled LDL at 30 µg/ml for 8 h, in lipoprotein-deficient serum medium. Detection: 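Fluorescent LDL signal imaged in cells, scaled to the plate median, robust z-score for each replicate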. Direction: robust z-score: higher = more LDL uptake after knockdown. Call rule: 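Active when two or more replicates show a robust z-score above 2 or below -2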.
This is a random part of about 22,000 reagents. Over the whole deposit, about 1,510 (6.9%) are marked active. 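Active includes knockdowns raising or lowering LDL uptake; positive z-scores mean more uptake, negative mean less.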 Entries without a mark were called inactive.

The first 2 entries, ahead of the listing:
PDZK1
- robust z-score, replicate 1: 2.51 (active)
- robust z-score, replicate 2: 1.19
- robust z-score, replicate 3: 2.23

TAS2R8
- robust z-score, replicate 1: -0.506
- robust z-score, replicate 2: -1.34
- robust z-score, replicate 3: -0.249

Results, repeating the preview:
PDZK1
- robust z-score, replicate 1: 2.51 (active)
- robust z-score, replicate 2: 1.19
- robust z-score, replicate 3: 2.23

TAS2R8
- robust z-score, replicate 1: -0.506
- robust z-score, replicate 2: -1.34
- robust z-score, replicate 3: -0.249

ZNF488
- robust z-score, replicate 1: -1.02
- robust z-score, replicate 2: -1.05
- robust z-score, replicate 3: -1.14

FGA
- robust z-score, replicate 1: -0.163
- robust z-score, replicate 2: -0.979
- robust z-score, replicate 3: 0.587

ADORA3
- robust z-score, replicate 1: 2.15
- robust z-score, replicate 2: 0.206
- robust z-score, replicate 3: 1.57

RABL6
- robust z-score, replicate 1: -1.39
- robust z-score, replicate 2: 0.744
- robust z-score, replicate 3: 0.225

TECPR2
- robust z-score, replicate 1: 0.00392
- robust z-score, replicate 2: 0.214
- robust z-score, replicate 3: -1.24

EEF1A1P16
- robust z-score, replicate 1: 0.903
- robust z-score, replicate 2: 0.271
- robust z-score, replicate 3: 0.461

DSTN
- robust z-score, replicate 1: 0.265
- robust z-score, replicate 2: -0.858
- robust z-score, replicate 3: 0.773

LOC440870 (retired record)
- robust z-score, replicate 1: -0.472
- robust z-score, replicate 2: -0.758
- robust z-score, replicate 3: -0.659

LOC440545 (retired record)
- robust z-score, replicate 1: -0.78
- robust z-score, replicate 2: -0.365
- robust z-score, replicate 3: -0.801

ST7
- robust z-score, replicate 1: -1.76
- robust z-score, replicate 2: -1.42
- robust z-score, replicate 3: -2.4

C1QB
- robust z-score, replicate 1: 1.4
- robust z-score, replicate 2: 2.43
- robust z-score, replicate 3: 1.88

H3C2
- robust z-score, replicate 1: 0.347
- robust z-score, replicate 2: 1.01
- robust z-score, replicate 3: 1.11

LOC100288637
- robust z-score, replicate 1: 0.937
- robust z-score, replicate 2: 0.652
- robust z-score, replicate 3: 0.931

SYCP2L
- robust z-score, replicate 1: 1.04
- robust z-score, replicate 2: 1.06
- robust z-score, replicate 3: 1.45
